Results reported in US5773414A, “Endothelin antagonists” (Warner-Lambert Company, priority 1997, dated 1998).
Part of at least one peptide drawing is inferred or uncertain, most often the ends. Square brackets hold non-standard residues; d marks the D form. Peptide text beside a SMILES is read from it. dDip = N[C@@H](C(=O)O)C(c1ccccc1)c1ccccc1

System: pulmonary artery rings contracted by SRTX-6c
Test: In vitro isolated vessel study, pulmonary artery rings, agonist SRTX-6c
Parameters: species or system rabbit
Conditions: Table III, endothelium-denuded rings
Method: In Vitro (Isolated Vessel) Studies
Male New Zealand rabbits were killed by cervical dislocation and exsanguination. Femoral and pulmonary arteries were isolated, cleaned of connective tissue, and cut into 4 mm rings. The endothelium was denuded by placing the rings over hypodermic tubing (32 gauge for femoral rings and 28 gauge for pulmonary rings, Small Parts Inc., Miami, Fla.) and gently rolling them. Denuded rings were mounted in 20 mL organ baths containing Krebs-bicarbonate buffer (composition in mM: NaCl, 118.2; NaHCO3, 24.8; KCl, 4.6; MgSO4, 7.H2 O, 1.2; KH2 PO4, 1.2; CaCl2. 2H2 O; Ca--Na2 EDTA, 0.026; Dextrose, 10.0), that was maintained at 37° C., and gassed continuously with 5% CO2 in oxygen (pH 7.4). Resting tension was adjusted to 3.0 g for femoral and 4.0 g pulmonary arteries; the rings were left for 90 minutes to equilibrate. Tension was monitored with force displacement transducers (Grass FT03, Quincy, Mass.) and recorded on a polygraph (Gould 2108, Cleveland, Ohio) recorder.
Vascular rings were tested for a lack of functional endothelium, i.e., lack of an endothelium-dependent relaxation response to carbachol (1.0 μM) in norepinephrine (0.03 μM) contracted rings. […]
For the in vitro experiments compounds were dissolved in 0.1% acetic acid in distilled water. […] The antagonist activity of various compounds are expressed as PA2 values in Table III.

Compound: CC[C@H](C)[C@H](NC(=O)[C@H](Cc1ccccc1)NC(=O)[C@H](CC(=O)O)NC(=O)[C@H](CC(C)C)NC(=O)[C@H](NC(C)=O)C(c1ccccc1)c1ccccc1)C(=O)N[C@@H](Cc1c[nH]c2ccccc12)C(=O)O [Example 76, Ac--D--Dip--Leu--Asp--Phe--Ile--Trp] (Ac-[dDip]LDFIW-OH)
- pA2, rabbit pulmonary artery: 5.84
